Measurements from “University of Dundee, Small-Polar-MMV Screening Library” (2021), ChEMBL document CHEMBL3988442.

Protein sequences, listed by entry. Tags and fused reporters are not part of them.
UniProt E9BF75, entry or part of it: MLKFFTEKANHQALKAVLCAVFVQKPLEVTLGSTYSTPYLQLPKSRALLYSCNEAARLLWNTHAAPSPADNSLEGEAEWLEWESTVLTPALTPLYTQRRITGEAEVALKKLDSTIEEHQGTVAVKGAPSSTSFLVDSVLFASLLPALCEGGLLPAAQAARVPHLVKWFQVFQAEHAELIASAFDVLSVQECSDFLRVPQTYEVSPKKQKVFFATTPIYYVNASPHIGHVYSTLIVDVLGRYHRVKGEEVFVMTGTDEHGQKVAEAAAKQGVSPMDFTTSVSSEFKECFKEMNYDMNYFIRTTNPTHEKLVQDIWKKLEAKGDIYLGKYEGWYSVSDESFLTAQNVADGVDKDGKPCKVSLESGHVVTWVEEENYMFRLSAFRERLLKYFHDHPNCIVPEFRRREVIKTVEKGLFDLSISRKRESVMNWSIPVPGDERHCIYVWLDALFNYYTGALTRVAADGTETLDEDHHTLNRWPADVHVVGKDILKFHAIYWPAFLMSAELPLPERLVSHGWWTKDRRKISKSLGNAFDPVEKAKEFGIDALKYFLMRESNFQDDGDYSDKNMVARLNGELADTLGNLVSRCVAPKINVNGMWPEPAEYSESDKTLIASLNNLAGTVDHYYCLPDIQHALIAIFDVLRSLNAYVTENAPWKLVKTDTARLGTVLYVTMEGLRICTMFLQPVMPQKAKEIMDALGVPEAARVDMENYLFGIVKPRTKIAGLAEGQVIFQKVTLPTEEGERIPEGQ

A: 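Assay on Mycobacterium tuberculosis, filed only as a heat shock assay from Cornell; the read-out is not stated. The concentration is filed as 10 mM, unlikely as a test dose, so the dose is not known. Higher reads as stronger inhibition (inferred: compounds with an IC50 in retests scored well above the rest). Size under these conditions: about 69,000 compounds, about 930 of them at 50% or above in at least one test.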
B: 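Primary screen of methionyl-tRNA synthetase; the read-out is not stated. Target: Methionyl-tRNA synthetase (putative), Leishmania donovani (UniProt E9BF75). The test concentration is not given. Values are per cent inhibition. Size under these conditions: about 68,000 compounds, about 24 of them at 50% or above in at least one test.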
C: 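Whole-cell assay for inhibitors of Mycobacterium tuberculosis growth, labelled Cornell in the record; the read-out is not stated. The concentration is filed as 10 mM, unlikely as a test dose, so the dose is not known. Higher means stronger inhibition (inferred from two other growth screens of the library). About 53,000 compounds were tested under these conditions; 1.7% (about 900) showed 50% or more at least once.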

Results are percentages, as filed. The record does not define 0% and 100%; most values in the screen are far below 50% and negative numbers occur (in some assays of this library far below -100). This is an unselected part of the compounds tested.

compound: CCc1ccc(C(C)NC(=O)c2ccc(CS(C)(=O)=O)o2)cc1 (stereo not shown)
A: 8.251
B: 10.05
C: 23.4

compound: CC(Cn1cncn1)NC(=O)NCC(C)(C)c1ccc(F)cc1 (stereo not shown)
A: 2.263
B: 10.13
C: 10.65

compound: [H][C@]12CC[C@]([H])(CN(c3nnc(C(C)C)s3)C1)N(Cc1ccccc1)C2
A: 34.82
C: 16.51

compound: Cc1cn2c(n1)CCC(NS(=O)(=O)c1cc(C)sc1C)C2 (stereo not shown)
A: 4.011
B: 4.969

compound: CN(CCc1ccccc1)c1cnn(CC2COCCO2)c(=O)c1 (stereo not shown)
A: 14.15
B: 14.85

compound: CC(=O)N1CCC(CCc2ccnc(NC(=O)c3ccccn3)c2)CC1
A: -7.121
B: 6.522
C: -18.95

compound: [H][C@@]12COC[C@]1(COCc1ccccn1)CN(c1ncccn1)C2
A: -8.287
C: -15.24

compound: Cc1cc(C)nc(N2CC=C[C@H]2C(=O)NCc2ccc3c(c2)OCO3)n1
A: 13.66
B: 7.349
C: 12.19

compound: c1ccc(C(Cn2cnnc2)N2CCOCC2)nc1 (stereo not shown)
A: 11.55
B: 8.289

compound: [H][C@@]12CS(=O)(=O)C[C@]1([H])N(Cc1ncc[nH]1)CCN2CCCc1ccccc1
A: -2.927
C: -56.34

compound: CCn1nc(C)c2ccn(CC(=O)NC3CCCC3)c(=O)c21
A: 7.257
B: 7.843
C: -1.565

compound: CC(=O)N1CCOC2(CCCN(C(=O)CCN3CCCCC3)C2)C1 (stereo not shown)
A: -5.229
B: 6.111

compound: O=C(O)C(F)(F)F.O=C(O)C(F)(F)F.O=C(O)C(F)(F)F.[H][C@@]12CN(Cc3ccccn3)C[C@]1([H])OCCN2c1ncccn1
A: 4.713

compound: CNC(=O)[C@@H]1C[C@H](N)CN1S(=O)(=O)c1cc(Cl)c(Cl)s1
A: 8.948
B: 16

compound: CCOCc1nn(CC2CC2)c2c1CN(Cc1cccs1)CC2.O=C(O)C(F)(F)F.O=C(O)C(F)(F)F
A: 26.4
C: -5.457

compound: COCCNc1ncc(-c2cccc(F)c2)c(-c2nccn2C)n1
A: -4.341
B: 0.3175
C: -16.87

compound: CC(C)N(C(=O)Cn1c(-c2ccco2)cc2cccnc21)C(C)C
B: 20.44

compound: COC(=O)[C@@H]1Cc2ncn(C)c2CN1S(=O)(=O)c1cccs1
A: 0.4359
B: 1.504
C: -4.501

compound: O=C(O)C(F)(F)F.[H][C@]12CCN(C(=O)c3ccc4ncccc4c3)C[C@@]1([H])OCCN(C(C)=O)C2
A: -15.94
C: -1.24

compound: CCc1noc(C2CCN(C(=O)CCn3nc(C)cc3C)CC2)n1
A: 14.28
B: 14.17
C: -39.63

compound: O=C(O)C(F)(F)F.O=C(O)C(F)(F)F.O=C(O)C(F)(F)F.[H][C@]12CC(=O)N(Cc3cccc(C)n3)[C@@]1([H])CCN2Cc1ccccn1
A: -36.47
C: 1.934

compound: CCc1ccc(CN2CCN(C)c3ncccc3C2)o1
B: 1.288

2 of the entries, repeated:

- O=C(O)C(F)(F)F.O=C(O)C(F)(F)F.O=C(O)C(F)(F)F.[H][C@]12CC(=O)N(Cc3cccc(C)n3)[C@@]1([H])CCN2Cc1ccccn1 | A: -36.47%; C: 1.934%
- CC(=O)N1CCOC2(CCCN(C(=O)CCN3CCCCC3)C2)C1 (stereo not shown) | A: -5.229%; B: 6.111%